For five molecules, binding results are on record in PMC8468827.

Chains of the proteins cited; added tags and fusions are not shown.
UniProt Q9VQ93: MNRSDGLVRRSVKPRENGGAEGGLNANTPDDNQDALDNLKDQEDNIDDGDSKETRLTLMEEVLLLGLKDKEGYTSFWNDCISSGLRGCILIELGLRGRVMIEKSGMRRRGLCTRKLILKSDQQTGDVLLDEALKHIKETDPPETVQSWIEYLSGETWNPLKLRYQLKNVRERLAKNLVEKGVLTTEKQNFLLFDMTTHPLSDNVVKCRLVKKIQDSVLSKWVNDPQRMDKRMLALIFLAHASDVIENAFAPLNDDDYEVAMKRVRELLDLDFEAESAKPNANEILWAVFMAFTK

Sequences and labels used below:
B1: Rsph4a (protein, UniProt Q9W1D3 1-708)
chain: MDRDSCQNFSLDSTSSSHFAPPPVCAPRRKKPEKPAAEEASPECSNVTSSSSSSTTTISIGAFDSQCNLHNARNPEAPNIGYELNVAKSILQKYSTLSGDNLFDHLSDIIKRVIDERPPNVIDFFEEFSRNVREQKFHLPERFPPSGVFDEVRSFRVAKKILQSMKLPYVVEGEDLMGEDLSVEDLRTNEDMRIVIDDSMRYFVTFNERVQQLQFYWTQCGFSISNDDIFQLASAMNRLQTHPSIMQCRFWGCINGLKASYYIVEASLTREEIASRLVMMEEEMRQKQIPFPMRKDREDKPPPAHIGPELTPGIYGWEEFPPEELEKMKPKAAPVPLVEEMELYDIPPEFIGKGCNRYSYFVVNSLFDDWIELPIVTPRQIVVSRQIKKFLTGDLEADVISYPCFPGKEKHYLRTLIGRITAGTYIAPVGYYRRMTKKEQRMFDGEEEEEGEEEEEEEEEEEFNEGEEEQIEDNDVMLLKNEKYEAEPLGSLATPVAWVHVRSNILNQQGRVVWYDEEKARKEREKALALYLKMQMLGEMEEEVEEEEDEEEGEEEGEEEGMIEGFNQPELGPSILSSCANDMNPEVPVSWLARMTSKYTNQKERMLVMQSNVWPGAYTFIFEKTCESIYLGWGHKYYARNIPFKHLPMVQEEFPHNPEDFVEANDPTVEEEEAYKAWLLRKQQKAEYVAEDIEDYDDDEFADQYDDD
B2: Defective transmitter release (Dtr) (protein, UniProt Q8INT5 1-1483)
chain: MSNSNRKEITGLNRMTPKGLKELCKKDKLYQTPRLNDVLYLHYQGFQCIESLEEYTELKCLWLECNAISEIQGLEKLSKLKCLFLQNNLITKIENLDPCRELDTLNLSSNHIRKIQNIGTNVLPVLNTLTISSNYLKDSESLSDLIQCKTLSVLDLSNNRIDDILIVKIFEQMLNLKVLVLQGNPVVSRLPQYRKTLILACKELTYLDSRPVFPRDRACAEAWKRDGYEGERKENNRWNRAERRKTRESINCTIRMRNSHRPPDQQDPLLRSSDSEDDTCAETARKKVALENGCVDDLWEEVSGEQPISEDGTNSSSSLEDNDGTSSQDDLIAEKLSNRRTLEGRPTVLYETEVSNVKSANNDINIFEEGVGKASQIIIEDKPVTKIKLINEPSCMNDKSAMNCTSMGPVVKENDFDEDAEIKNVDDMVPCQNLIKSNEDINSEFGFSSKLKQDFDQTCTALRNDAECKEFDEELTIKESESKPFNEMYDIFAAEDDKLNETLDLNLNETTCPHHVHDNFFSEQNKMPSFYEEDIMINLLPKTKEKTLLEKDSIIENEKCAHDLDEMGRQMEEDLAELRQSTQNLIGISIDETARTDSETDEEDLIAQQDPYSPLLKQQFKDRRMKIMLTEETKAQEESLSDRNIALSNESDQDDKQDQLFAKILDDATENIPKRIFGTGCDALSSVWPQEECLLQLTLPENKESPAQEDTFKKSITNSTSFEKANEICVRMDQKMAEEEEALGKLLHDLEGEINNVYDINTKVKYEENTSTNESDAVSICTSLLDDIIVGLTFDEVLCHEKPKSFEFGLIESDEEFSYSFEPKLEKLVPPALEDPARGKSLRECLDTFSDFVSSMADPKLPVMLGRNPTSGVEKIRAAQELLKTKNLSDLYKDTAESLNSQVAKEIEKRKRRVAASATRCFNQRDKYDDTLELVENRLMIVKKDSGDLEELPPPPPLISDTESEDDNPTEDNYTPGNEVHRHGTKTQDSKEHLMSNLLNQNQDDIIEGKKNDSAEDEFYSLEAMTTFGNLDAEFFQKLDLQKVNASEDSEPAINCMRSYNELQAYMKSGSLNTQLNSEEAEMLQTMCSRVASDVDKPKSQNSKEEEEDDLLKKMVLRMKEYEEREHQLQLISHETSSELGPIKLSIGGSKLFEQNTKIPESVLVHSENEPTRNNKPINTKNTNDKESSDIMEKNGDPSVTTSFKTSHKSIDDDIQSDVSTDYESGEEVVVVEPPTLSEAVLKSFYSDEFEADSKMVHELEEATRRNLRRYNPNIMHISTSNHPFSTNNILPTKTSTSELSEGAKAKWAKIAERLHEFLDPETIANLNKEQFGESDECEDSQDDNITDITVEETNLKKDTKLVVLEEYNNTHTCDGNSCPSKLDDSDQFASLKGFEKIKETPTHNMGLSSVMSASQNKTSETLPNEIGNKITDFSSFKTSSTDLINSEGVKTEQIQCNLQILSDEGDVVVEELSVNAQVSSFK
B3: Rsph9 (protein, UniProt Q8T3V7 1-281)
chain: MNLEFFTEGLDCLMYCGMKLSPEQRILIENSLIALQNDNRFTGMYLWGRITATKNDYYIAFGYTNDCLKDRKYFYSLDQFQWQLLPFVQSPKIFQATILAREPFIGDPSLMTYVKLDPTFDIVGNQVAGISRPEVVKLKEEERLAAIVFIITEECAICPRGAFYKMTDGRVIPNQMFRGLNDLQIDNQSYYQLYRLPRNDLKVNLAKRSDYNYAIDFLDTIDCVIPLCQAFALNMQRNEGLVIIKSCLWLGMTFFHKINSHKHGFLYLGDGKKNFDLLFMY
B4: Kinesin-like protein at 10A (Klp10A) (protein, UniProt Q960Z0 1-805)
chain: MDMITVGQSVKIKRTDGRVHMAVVAVINQSGKCITVEWYERGETKGKEVELDAILTLNPELMQDTVEQHAAPEPKKQATAPMNLSRNPTQSAIGGNLTSRMTMAGNMLNKIQESQSIPNPIVSSNSVNTNSNSNTTAGGGGGTTTSTTTGLQRPRYSQAATGQQQTRIASAVPNNTLPNPSAAASAGPAAQGVATAATTQGAGGASTRRSHALKEVERLKENREKRRARQAEMKEEKVALMNQDPGNPNWETAQMIREYQSTLEFVPLLDGQAVDDHQITVCVRKRPISRKEVNRKEIDVISVPRKDMLIVHEPRSKVDLTKFLENHKFRFDYAFNDTCDNAMVYKYTAKPLVKTIFEGGMATCFAYGQTGSGKTHTMGGEFNGKVQDCKNGIYAMAAKDVFVTLNMPRYRAMNLVVSASFFEIYSGKVFDLLSDKQKLRVLEDGKQQVQVVGLTEKVVDGVEEVLKLIQHGNAARTSGQTSANSNSSRSHAVFQIVLRPQGSTKIHGKFSFIDLAGNERGVDTSSADRQTRMEGAEINKSLLALKECIRALGKQSAHLPFRVSKLTQVLRDSFIGEKSKTCMIAMISPGLSSCEHTLNTLRYADRVKELVVKDIVEVCPGGDTEPIEITDDEEEEELNMVHPHSHQLHPNSHAPASQSNNQRAPASHHSGAVIHNNNNNNNKNGNAGNMDLAMLSSLSEHEMSDELIVQHQAIDDLQQTEEMVVEYHRTVNATLETFLAESKALYNLTNYVDYDQDSYCKRGESMFSQLLDIAIQCRDMMAEYRAKLAKEEMLSCSFNSPNGKR
B5: Tektin-A (protein, UniProt Q9V3M9 1-585)
chain: MNCLEKKSPEANPECKGRTIELNPGSACPAPLICPLPTEPPSHRLKKPPQPALVALTPHPDEAAQQHLVQNIMGSAQEHQKLQADLQAGVDQQQMQLADMRAEQYKQSNKPLRMEEVQFARSMDPEADDLRNPPCYLPQQGDELPHKDQLMPMGPIGPWASGKVDWSPMAGITGTRPVVDRYSITRYSPNEWRTRNHETVQVVNASLGRADKNRFSSTTEFLRLSALVDKSQKETTDKLRIRSQLIGKWKNTLENAIKAMADEISTMEVERIKLRKSMVVLGVPESIAKECIEKRATRPDTELVRDQVEEELVNELALIAEIRRLLMKTLDDFNSQQVENRTARQRLEYDWSDKKESYEIDTINTGLNNCSRTIMFRPGAVRQPPEQASEKYWEHFSMETLDECEKCRLKSVALRNTLNSTLMNAARDIRTQADVVEKALTSRINCTQEAVQRFENDLKNILQGTADVENRIEQMKRRINSFDSSMKVAQTRMDNRSYRPNVENCRDLAQQELIDGVHTIQSSVSALLHELEEAERVKTDLVNSRARLEREIMLKRRSLFIDRERCMLMRSYYPSANTLSGAATS

These are yes or no findings as the source states them, for the method shown. Binding seen in cells or lysates may run through a third protein. These calls come from enrichment with a bait or labelling near it, and not all partners need be listed.

This assay deals with dGOLPH3-mRFP (Drosophila) (UniProt Q9VQ93). Put plainly: affinity purification with mass spectrometry; RFP-trap beads on lysate of 3000 adult testes expressing dGOLPH3-RFP (RFP alone as control); lysis buffer 25 mM Tris-HCl pH 7.4, 150 mM NaCl, 1 mM EDTA, 1% NP-40; washes at 4 °C; nanoLC-MS/MS.
In the case of B1, the binding entry was “binds”.

As for B2, the binding result is listed as “binds”.

For B3, the binding result is “binds”.

Turning to B4, the binding result is on record as “binds”.

For the molecule B5, the binding result is reported as “binds”.
